Experiment: general procedure: solution-phase peptide synthesis; active ester (11) with (CH3CH2)3N in DMSO
Settings: conjugation step, ammonium salt

Substance	conjugation yield [%]
{6′SLN—S1—S2-[Gly2(MCMGly)]3Gly2-NHCH2}3CCH3	83
{6′SLN—S1—S2-[Gly2(MCMGly)]4Gly2-NHCH2}3CCH3	86
{6′SLN—S1—S2-[Gly2(MCMGly)]5Gly2-NHCH2}3CCH32	91

Same assay, conditions: coupling step, CF3COOH salt (deprotected amines)

Substance	step yield [%]
{Boc-[Gly2(MCMGly)]2Gly2-NHCH2}3CCH3	94
{Boc-[Gly2(MCMGly)]2Gly2-NHCH2}4C	71
{Boc-[Gly2(MCMGly)]3Gly2-NHCH2}3CCH3	97.5
{Boc-[Gly2(MCMGly)]4Gly2-NHCH2}3CCH3	97
{Boc-[Gly2(MCMGly)]4Gly2-NHCH2}4C	96
{Boc-[Gly2(MCMGly)]5Gly2-NHCH2}3CCH3	98
{Boc-[Gly2(MCMGly)]5Gly2-NHCH2}4C	95
{Boc-[Gly2(MCMGly)]Gly2-NHCH2}3CCH3	91.5
{Boc-[Gly2(MCMGly)]Gly2-NHCH2}4C	68

Same assay, conditions: late stage modification step, CF3COOH salt

Substance	step yield [%]
{CF3COOH-H-[Gly2 (MCMGly)]2Gly2-NHCH2}4C	98
{CF3COOH.H-[Gly2(MCMGly)]2Gly2-NHCH2}3CCH3	97
{CF3COOH.H-[Gly2(MCMGly)]3Gly2-NHCH2}3CCH3	96
{CF3COOH.H-[Gly2(MCMGly)]3Gly2-NHCH2}4C	99
{CF3COOH.H-[Gly2(MCMGly)]4Gly2-NHCH2}3CCH3	97
{CF3COOH.H-[Gly2(MCMGly)]4Gly2-NHCH2}4C	96
{CF3COOH.H-[Gly2(MCMGly)]5Gly2-NHCH2}3CCH3	94
{CF3COOH.H-[Gly2(MCMGly)]5Gly2-NHCH2}4C	99
{CF3COOH.H-[Gly2(MCMGly)]Gly2-NHCH2}3CCH3	98
{CF3COOH.H-[Gly2(MCMGly)]Gly2-NHCH2}4C	99

From patent publication US8674061B2 (priority 2008, dated 2014)
